Source: US8334314B2, “Phenylpropionic acid derivative and use thereof” (Asahi Kasei Pharma Corporation, priority 2008, dated 2012)
Some results were stated once for a whole list of compounds, not compound by compound.

Columns and labels:
[1] = system: PGE2 production from IL-1 β-stimulated MG-63 cells; assay: Suppressing action on PGE2 production from IL-1β-stimulated MG-63 cells; format: cell-based, human; conditions: 0.4 μM, IL-1β 0.5 ng/ml, 18 hours
type 4 PLA2 = target: T1, type 4 PLA2 (Homo sapiens, UniProt P47712); assay: Inhibitory action against type 4 PLA2 activity (GLU on DOPS liposomes, fluorescence); format: biochemical; conditions: 0.4 μM
T1 sequence (P47712 1-749): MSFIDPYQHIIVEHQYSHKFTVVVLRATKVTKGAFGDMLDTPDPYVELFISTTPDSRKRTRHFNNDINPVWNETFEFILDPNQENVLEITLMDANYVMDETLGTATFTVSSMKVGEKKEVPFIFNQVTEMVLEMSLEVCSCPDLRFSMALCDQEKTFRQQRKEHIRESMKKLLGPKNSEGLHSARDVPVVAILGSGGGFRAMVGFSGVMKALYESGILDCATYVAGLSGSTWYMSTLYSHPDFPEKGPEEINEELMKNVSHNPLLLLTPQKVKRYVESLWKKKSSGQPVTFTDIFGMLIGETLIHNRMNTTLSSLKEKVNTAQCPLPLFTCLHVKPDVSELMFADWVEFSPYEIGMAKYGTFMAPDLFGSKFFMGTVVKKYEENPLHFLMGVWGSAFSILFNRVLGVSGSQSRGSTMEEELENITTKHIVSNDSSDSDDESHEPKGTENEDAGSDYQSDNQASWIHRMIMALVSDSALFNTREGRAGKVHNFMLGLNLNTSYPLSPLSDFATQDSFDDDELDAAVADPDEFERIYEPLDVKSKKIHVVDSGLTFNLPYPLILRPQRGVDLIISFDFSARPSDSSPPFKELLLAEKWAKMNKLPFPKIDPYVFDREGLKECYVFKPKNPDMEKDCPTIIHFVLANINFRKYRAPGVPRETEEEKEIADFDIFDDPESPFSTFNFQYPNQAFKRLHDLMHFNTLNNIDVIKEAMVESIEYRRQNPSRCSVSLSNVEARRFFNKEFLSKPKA

Row | Molecule | suppression of the PGE2 production caused by IL-1β [1] [%] | suppression of the type 4 PLA2 activity (type 4 PLA2) [%]
1 | COc1cc(C)c(CCC(=O)O)cc1-c1ccc2c(cnn2C)c1 [Example 2-1-2, 3-(4-methoxy-2-methyl-5-(1-methyl-1H-indazol-5-yl)phenyl)propanoic acid] | ≥ 50 | ≥ 50
2 | Cc1cc(O)c(-c2ccc3c(cnn3C)c2)cc1CCC(=O)O [Example 2-2-2, 3-(4-hydroxy-2-methyl-5-(1-methyl-1H-indazol-5-yl)-phenyl)propanoic acid] | ≥ 50 | ≥ 50
3 | CC(C)CNc1cc(Cl)c(CCC(=O)O)cc1-c1ccc2c(cnn2C)c1 [Example 7-N304-2, 3-(2-chloro-4-(isobutylamino)-5-(1-methyl-1H-indazol-5-yl)phenyl)propanoic acid] | ≥ 50 | ≥ 50
4 | COc1cc(O)c(CCC(=O)O)cc1-c1ccc2c(cnn2C)c1 [Example 1-1-2, 3-(2-hydroxy-4-methoxy-5-(1-methyl-1H-indazol-5-yl)phenyl)propanoic acid] | ≥ 50 | 
5 | methyl 3-(4-(3-fluorobenzyloxy)-2-methyl-5-(1-methyl-1H-indazol-5-yl)phenyl)propanoate [Example 2-4-2] | ≥ 50 | ≥ 50
6 | methyl 3-(4-(4-fluorobenzyloxy)-2-methyl-5-(1-methyl-1H-indazol-5-yl)phenyl)propanoate [Example 2-3-2] | ≥ 50 | ≥ 50
7 | Cn1ncc2cc(-c3cc(CCC(=O)O)c(O)cc3OC3Cc4ccccc4C3)ccc21 [Example 1-5-2, 3-(4-(2,3-dihydro-1H-inden-2-yloxy)-2-hydroxy-5-(1-methyl-1H-indazol-5-yl)phenyl)propanoic acid] | ≥ 50 | ≥ 50
8 | CC(C)CN(C)c1cc(Cl)c(CCC(=O)O)cc1-c1ccc2c(cnn2C)c1 [Example 7-N305-2, 3-(2-chloro-4-(isobutyl(methyl)amino)-5-(1-methyl-1H-indazol-5-yl)phenyl)propanoic acid] | ≥ 50 | ≥ 50
